Laboratory results: PubChem BioAssay AID1259254 (NCATS, 2017)
Assay: 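Finding genes that stop cells copying their DNA twice in one cycle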 (primary screen). Cell system: human HCT116 colorectal cancer cells. Reagents: single siRNA against human genes. Timing: 3 days. Measurement: 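Nuclei stained with Hoechst and imaged; cell-cycle phase assigned by DNA content; G2 share scaled per plate, non-targeting siRNA 0%, GMNN siRNA 100%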. Scale: G2 robust z-score and G2 cells, % of GMNN control: higher = more G2 cells, more excess DNA replication. Hit rule: 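An siRNA counts as active if its G2 robust z-score lies at least 5 MADs above the screen median; here such calls match roughly 38% of GMNN control or more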.
This is an unselected part of about 59,000 reagents tested. About 1,550 of them (2.6%) were called active. 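G2 share is only a proxy for re-replication; each gene was hit by three separate siRNAs, and active genes were retested.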 The numbers tell different reagents against one gene apart. Further read-outs or replicates are left out here. Not stated in the record: the amount of reagent.

| Target gene | reagent no. | G2 robust z-score | G2 cells, % of GMNN control | Outcome |
| --- | --- | --- | --- | --- |
| TBX21 (GeneID 30009) | 1 | -0.631 | -1.47 | inactive |
| TBX21 (GeneID 30009) | 2 | -0.451 | -0.208 | inactive |
| TBX21 (GeneID 30009) | 3 | 0.652 | 7.56 | inactive |
| PPT1 (GeneID 5538) | 1 | 1.68 | 14.8 | inactive |
| PPT1 (GeneID 5538) | 2 | 0.203 | 4.39 | inactive |
| PPT1 (GeneID 5538) | 3 | 0.431 | 6 | inactive |
| ADORA1 (GeneID 134) | 1 | 2.63 | 21.5 | inactive |
| ADORA1 (GeneID 134) | 2 | -1.06 | -4.47 | inactive |
| ADORA1 (GeneID 134) | 3 | 0.331 | 5.29 | inactive |
| LYPLA2 (GeneID 11313) | 1 | -0.808 | -2.72 | inactive |
| LYPLA2 (GeneID 11313) | 2 | 4.53 | 34.8 | inactive |
| LYPLA2 (GeneID 11313) | 3 | 3.21 | 25.6 | inactive |
| ZFHX3 (GeneID 463) | 1 | 0.266 | 4.84 | inactive |
| ZFHX3 (GeneID 463) | 2 | -0.581 | -1.12 | inactive |
| ZFHX3 (GeneID 463) | 3 | -0.468 | -0.327 | inactive |
| RTP4 (GeneID 64108) | 1 | 2.19 | 18.4 | inactive |
| RTP4 (GeneID 64108) | 2 | -0.681 | -1.82 | inactive |
| RTP4 (GeneID 64108) | 3 | -0.648 | -1.59 | inactive |
| CDC50CP (GeneID 644444) | 1 | 0.442 | 6.07 | inactive |
| CDC50CP (GeneID 644444) | 2 | 1.87 | 16.1 | inactive |
| CDC50CP (GeneID 644444) | 3 | 3.27 | 26 | inactive |
| ALKBH7 (GeneID 84266) | 1 | -0.24 | 1.28 | inactive |
| ALKBH7 (GeneID 84266) | 2 | -0.79 | -2.59 | inactive |
| ALKBH7 (GeneID 84266) | 3 | 0.326 | 5.26 | inactive |
| EXTL2 (GeneID 2135) | 1 | -0.822 | -2.81 | inactive |
| EXTL2 (GeneID 2135) | 2 | -0.755 | -2.34 | inactive |
| EXTL2 (GeneID 2135) | 3 | 2.25 | 18.8 | inactive |
| LRRC37B (GeneID 114659) | 1 | 0.337 | 5.34 | inactive |
| LRRC37B (GeneID 114659) | 2 | -0.573 | -1.07 | inactive |
| LRRC37B (GeneID 114659) | 3 | 1.33 | 12.3 | inactive |
| RAB11A (GeneID 8766) | 1 | 2.57 | 21 | inactive |
| RAB11A (GeneID 8766) | 2 | 0.401 | 5.79 | inactive |
| RAB11A (GeneID 8766) | 3 | -0.288 | 0.943 | inactive |
| ARTN (GeneID 9048) | 1 | 0.873 | 9.11 | inactive |
| ARTN (GeneID 9048) | 2 | -0.308 | 0.8 | inactive |
| ARTN (GeneID 9048) | 3 | 2.49 | 20.5 | inactive |
| NUTM2F (GeneID 54754) | 1 | 9.16 | 67.4 | active |
| NUTM2F (GeneID 54754) | 2 | 1.46 | 13.3 | inactive |
| NUTM2F (GeneID 54754) | 3 | -0.226 | 1.38 | inactive |
| C3orf36 (GeneID 80111) | 1 | -0.673 | -1.77 | inactive |
| C3orf36 (GeneID 80111) | 2 | -0.596 | -1.23 | inactive |
| C3orf36 (GeneID 80111) | 3 | 0.747 | 8.22 | inactive |
| B3GNT7 (GeneID 93010) | 1 | 0.207 | 4.42 | inactive |
| B3GNT7 (GeneID 93010) | 2 | -0.637 | -1.52 | inactive |
| B3GNT7 (GeneID 93010) | 3 | -0.321 | 0.709 | inactive |
| WAS (GeneID 7454) | 1 | 1.86 | 16 | inactive |
| WAS (GeneID 7454) | 2 | 3.39 | 26.8 | inactive |
| WAS (GeneID 7454) | 3 | 0.498 | 6.47 | inactive |
| MDH1B (GeneID 130752) | 1 | 1.31 | 12.2 | inactive |
| MDH1B (GeneID 130752) | 2 | -0.176 | 1.73 | inactive |
| MDH1B (GeneID 130752) | 3 | 0.285 | 4.97 | inactive |

Next part, starting with the last 4 of the part before.
| Target gene | reagent no. | G2 robust z-score | G2 cells, % of GMNN control | Outcome |
| --- | --- | --- | --- | --- |
| WAS (GeneID 7454) | 3 | 0.498 | 6.47 | inactive |
| MDH1B (GeneID 130752) | 1 | 1.31 | 12.2 | inactive |
| MDH1B (GeneID 130752) | 2 | -0.176 | 1.73 | inactive |
| MDH1B (GeneID 130752) | 3 | 0.285 | 4.97 | inactive |
| ZNF688 (GeneID 146542) | 1 | 0.758 | 8.3 | inactive |
| ZNF688 (GeneID 146542) | 2 | 1.59 | 14.2 | inactive |
| ZNF688 (GeneID 146542) | 3 | 0.747 | 8.22 | inactive |
| OGFOD3 (GeneID 79701) | 1 | 3.98 | 30.9 | inactive |
| OGFOD3 (GeneID 79701) | 2 | 0.28 | 4.94 | inactive |
| OGFOD3 (GeneID 79701) | 3 | -0.925 | -3.54 | inactive |
| UBAP1 (GeneID 51271) | 1 | 0.695 | 7.86 | inactive |
| UBAP1 (GeneID 51271) | 2 | 2.17 | 18.2 | inactive |
| UBAP1 (GeneID 51271) | 3 | 1.95 | 16.7 | inactive |
| SRGN (GeneID 5552) | 1 | 2.86 | 23.1 | inactive |
| SRGN (GeneID 5552) | 2 | 1.32 | 12.3 | inactive |
| SRGN (GeneID 5552) | 3 | 0.441 | 6.07 | inactive |
| HINT2 (GeneID 84681) | 1 | -0.724 | -2.13 | inactive |
| HINT2 (GeneID 84681) | 2 | 1.23 | 11.6 | inactive |
| HINT2 (GeneID 84681) | 3 | -0.575 | -1.08 | inactive |
| C8orf44 (GeneID 56260) | 1 | -0.257 | 1.16 | inactive |
| C8orf44 (GeneID 56260) | 2 | -0.632 | -1.48 | inactive |
| C8orf44 (GeneID 56260) | 3 | -0.164 | 1.81 | inactive |
| POPDC2 (GeneID 64091) | 1 | 0.591 | 7.13 | inactive |
| POPDC2 (GeneID 64091) | 2 | 0.123 | 3.83 | inactive |
| POPDC2 (GeneID 64091) | 3 | -0.428 | -0.0453 | inactive |
| DEFB124 (GeneID 245937) | 1 | -0.964 | -3.81 | inactive |
| DEFB124 (GeneID 245937) | 2 | -0.602 | -1.27 | inactive |
| DEFB124 (GeneID 245937) | 3 | -0.202 | 1.55 | inactive |
| CTLA4 (GeneID 1493) | 1 | 0.684 | 7.78 | inactive |
| CTLA4 (GeneID 1493) | 2 | -0.343 | 0.555 | inactive |
| CTLA4 (GeneID 1493) | 3 | 2.57 | 21.1 | inactive |
| SF3B3 (GeneID 23450) | 1 | 3.44 | 27.2 | inactive |
| SF3B3 (GeneID 23450) | 2 | 0.306 | 5.12 | inactive |
| SF3B3 (GeneID 23450) | 3 | 1.47 | 13.3 | inactive |
| PLA2G12B (GeneID 84647) | 1 | 0.4 | 5.78 | inactive |
| PLA2G12B (GeneID 84647) | 2 | 1.21 | 11.5 | inactive |
| PLA2G12B (GeneID 84647) | 3 | -0.378 | 0.308 | inactive |
| FCRL6 (GeneID 343413) | 1 | 1.08 | 10.6 | inactive |
| FCRL6 (GeneID 343413) | 2 | -0.686 | -1.86 | inactive |
| FCRL6 (GeneID 343413) | 3 | 0.282 | 4.95 | inactive |
